{"source": "PubChem BioAssay AID686938 – Drosophila RNAi Screening Center | 2013", "assay": "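Looking for CRAC channel components and the factors controlling them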 (primary screen)", "cell system": "Drosophila S2R+ cells", "reagent": "long dsRNA against Drosophila genes, about 0.25 µg dsRNA per well, roughly 10,000 cells", "timing": "5 days of knock-down before the calcium assay", "treatment": "thapsigargin (SERCA pump blocker) to empty calcium stores; entry signal taken 4 min after adding it", "measurement": "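Per-well fluo-4 fluorescence in two replicates, unnormalised, measured in resting cells and 4 min after store depletion by the SERCA blocker thapsigargin; ratio of the two present in few wells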", "direction": "calcium entry signal: higher = stronger calcium signal after store depletion; resting calcium signal: higher = higher resting calcium signal", "units": "calcium entry signal in fluorescence units; resting calcium signal in fluorescence units", "active means": "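Hit if the duplicate-averaged plate z-score for entry over resting signal is under −3; wells with weak total dye signal (Fmax z < −2) or more than 5 off-targets removed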", "meaning of the calls": "active = strongly reduced calcium entry; inactive = no strong reduction", "note": "The screen tested about 23,000 reagents; below is an unselected part of those with a known target gene and a result. Over the whole deposit, 75 (0.33%) got an active call. 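Raw plate signals without normalisation; calls rest on plate z-scores that were not deposited; ratio present for only 364 wells.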 Names joined by + are all predicted targets of the reagent. Not stated in the record: the dose of the treatment."}
{"Gene":"Pex16 (Peroxin 16)","DRSC id":"DRSC11750","calcium entry signal, replicate 1":3.52e7,"calcium entry signal, replicate 2":4.57e7,"resting calcium signal, replicate 1":1.63e7,"resting calcium signal, replicate 2":3.12e7,"Call":"inactive"}
{"Gene":"twy (twitchy)","DRSC id":"DRSC10562","calcium entry signal, replicate 1":2.21e7,"calcium entry signal, replicate 2":2.92e7,"resting calcium signal, replicate 1":1.21e7,"resting calcium signal, replicate 2":1.42e7,"Call":"inactive"}
{"Gene":"CG15023","DRSC id":"DRSC08477","calcium entry signal, replicate 1":2.90e7,"calcium entry signal, replicate 2":5.28e7,"resting calcium signal, replicate 1":1.32e7,"resting calcium signal, replicate 2":2.12e7,"Call":"inactive"}
{"Gene":"CG10005","DRSC id":"DRSC14172","calcium entry signal, replicate 1":4.78e7,"calcium entry signal, replicate 2":2.90e7,"resting calcium signal, replicate 1":2.12e7,"resting calcium signal, replicate 2":1.66e7,"Call":"inactive"}
{"Gene":"Spn77Bb + Spn77Bc","DRSC id":"DRSC10689","calcium entry signal, replicate 1":2.21e7,"calcium entry signal, replicate 2":4.04e7,"resting calcium signal, replicate 1":1.17e7,"resting calcium signal, replicate 2":1.66e7,"Call":"inactive"}
{"Gene":"Spn77Bb + Spn77Bc","DRSC id":"DRSC11793","calcium entry signal, replicate 1":2.21e7,"calcium entry signal, replicate 2":3.64e7,"resting calcium signal, replicate 1":1.06e7,"resting calcium signal, replicate 2":1.48e7,"Call":"inactive"}
{"Gene":"Snmp1 (Sensory neuron membrane protein 1)","DRSC id":"DRSC16168","calcium entry signal, replicate 1":3.69e7,"calcium entry signal, replicate 2":3.77e7,"resting calcium signal, replicate 1":4.00e7,"resting calcium signal, replicate 2":1.72e7,"Call":"inactive"}
{"Gene":"ATPsynF (ATP synthase, subunit F)","DRSC id":"DRSC04482","calcium entry signal, replicate 1":5.04e7,"resting calcium signal, replicate 1":2.49e7,"Call":"inactive"}
{"Gene":"CG3955","DRSC id":"DRSC06859","calcium entry signal, replicate 1":3.99e7,"calcium entry signal, replicate 2":3.27e7,"resting calcium signal, replicate 1":1.96e7,"resting calcium signal, replicate 2":1.78e7,"Call":"inactive"}
{"Gene":"CG42260","DRSC id":"DRSC04172","calcium entry signal, replicate 1":3.81e7,"calcium entry signal, replicate 2":4.79e7,"resting calcium signal, replicate 1":2.03e7,"resting calcium signal, replicate 2":2.08e7,"Call":"inactive"}
{"Gene":"CG42260","DRSC id":"DRSC04385","calcium entry signal, replicate 1":4.32e7,"calcium entry signal, replicate 2":4.94e7,"resting calcium signal, replicate 1":2.20e7,"resting calcium signal, replicate 2":2.14e7,"Call":"inactive"}
{"Gene":"Or9a (Odorant receptor 9a)","DRSC id":"DRSC18692","calcium entry signal, replicate 1":2.93e7,"calcium entry signal, replicate 2":4.96e7,"resting calcium signal, replicate 1":1.49e7,"resting calcium signal, replicate 2":2.36e7,"Call":"inactive"}
{"Gene":"CG4872","DRSC id":"DRSC19921","calcium entry signal, replicate 1":3.69e7,"calcium entry signal, replicate 2":3.82e7,"resting calcium signal, replicate 1":1.78e7,"resting calcium signal, replicate 2":1.65e7,"Call":"inactive"}
{"Gene":"CG31233","DRSC id":"DRSC15888","calcium entry signal, replicate 1":4.55e7,"calcium entry signal, replicate 2":4.13e7,"resting calcium signal, replicate 1":5.16e7,"resting calcium signal, replicate 2":1.87e7,"Call":"inactive"}
{"Gene":"CG13872","DRSC id":"DRSC06431","calcium entry signal, replicate 1":5.89e7,"calcium entry signal, replicate 2":5.87e7,"resting calcium signal, replicate 1":2.60e7,"resting calcium signal, replicate 2":2.72e7,"Call":"inactive"}
{"Gene":"CG12828","DRSC id":"DRSC06177","calcium entry signal, replicate 1":3.16e7,"calcium entry signal, replicate 2":4.36e7,"resting calcium signal, replicate 1":1.58e7,"resting calcium signal, replicate 2":1.91e7,"Call":"inactive"}
{"Gene":"Acbp1 (Acyl-CoA binding protein 1)","DRSC id":"DRSC03093","calcium entry signal, replicate 1":3.01e7,"calcium entry signal, replicate 2":4.91e7,"resting calcium signal, replicate 1":1.49e7,"resting calcium signal, replicate 2":2.00e7,"Call":"inactive"}
{"Gene":"vtd (verthandi)","DRSC id":"DRSC20839","calcium entry signal, replicate 1":3.51e7,"calcium entry signal, replicate 2":2.66e7,"resting calcium signal, replicate 1":2.21e7,"resting calcium signal, replicate 2":1.61e7,"Call":"inactive"}
{"Gene":"CG4960","DRSC id":"DRSC15684","calcium entry signal, replicate 1":3.36e7,"calcium entry signal, replicate 2":4.97e7,"resting calcium signal, replicate 1":1.94e7,"resting calcium signal, replicate 2":2.42e7,"Call":"inactive"}
{"Gene":"Edc3 (Enhancer of decapping 3)","DRSC id":"DRSC10620","calcium entry signal, replicate 1":3.31e7,"calcium entry signal, replicate 2":3.91e7,"resting calcium signal, replicate 1":1.64e7,"resting calcium signal, replicate 2":2.41e7,"Call":"inactive"}
{"Gene":"CG15550","DRSC id":"DRSC15088","calcium entry signal, replicate 1":3.63e7,"calcium entry signal, replicate 2":6.21e7,"resting calcium signal, replicate 1":1.94e7,"resting calcium signal, replicate 2":2.65e7,"Call":"inactive"}
